Several values for one entry are separate records, joined by “and”; a condition that tells them apart may be missing. Equal entries are not always repeated. Non-standard residues stand in square brackets, D forms with d. No end group written: not given here. βAla = NCCC(=O)O; Sar = CNCC(=O)O
Legend:
[1] = general procedure: peptide synthesis; chlorotrityl resin (0.91 mmol/g); Fmoc-Ala-Wang resin (0.45 mmol/gr); Boc-Gly-Pam resin (0.5 mmol/g); Boc-Phe-PAM resin; HBTU; conditions: TFA salt; for cyclisation yield: cyclisation step
[2] = solid-phase peptide synthesis; conditions: whole synthesis, from the starting resin, scale 0.5 mmol, TFA salt
[3] = general procedure: peptide synthesis; Fmoc-Ala-Wang; HBTU; conditions: whole synthesis, TFA salt
[4] = head-to-tail ring, sequence written open

Work on “Bis-[cyclo-Gly(CH2CH2S)-Arg-Pro-Phe-Gly]” yielded a cyclisation yield [1] of 81%.

Substance cyclo-[(Hnb)Tyr-Arg-(Hnb)Phe-(D)Ala] has a cyclisation yield [1] of 18%.

With “Cyclo-[N-(6-nitro-2-hydroxybenzyl)-Phe-Leu-Pro-Ala-Ala]” the cyclisation yield ([1]; run 1) was 45% and the cyclisation yield ([1]; run 2) was 44%.

Work on cyclo-[(Hnb)Tyr-Arg-(Hnb)Phe-Ala] yielded a cyclisation yield [1] of 13%.

With cyclo(YRFG) the step yield ([1]; late stage modification step) was 47%.

Work on cyclo-[D-Amb-GRG] yielded an isolated yield ([1]; whole synthesis) of 5% monomer.

With G[Sar]GG the cyclisation yield [1] was 1%.

With GG[Sar][Sar] the cyclisation yield [1] was 18%.

For G[Sar]G[Sar], the cyclisation yield [1] was 2%.

Work on GGG[Sar] yielded a cyclisation yield [1] of 8%.

For Gly-Sar-Sar-Sar, the cyclisation yield [1, 4] was about 5%.

Work on Cyclo-(Gly(CH2CH2SH)-Arg-Pro-Phe-Gly) yielded a step yield ([1]; late stage modification step) of 74%.

For cyclo(LDVG[βAla]), the isolated yield ([1]; whole synthesis) was 18%.

H-PFNSLAI-OH showed an isolated yield ([1]; whole synthesis) of 39%.

cyclo(NSLAIPFNSLAIPFNSLAIPF) showed a cyclisation yield [1] of 5% and an isolated yield ([1]; whole synthesis) of 1%.

H-NSLAIPF-OH showed an isolated yield ([1]; whole synthesis) of 78%.

For cyclo(YRFA), the difficulty met ([1]; late stage modification step) was “The two cyclic products were subjected to heating and to photolysis: • Product A: Unstable to heat; the product fully decomposed upon heating for 20 h at 70 °C in DMSO”.

cyclo(PFNSLAI) gave a cyclisation yield ([1]; run 1) of 48%, a cyclisation yield ([1]; run 2) of 67% and an isolated yield ([1]; whole synthesis, run 1) of 10%. For the same substance, the isolated yield ([1]; whole synthesis, run 2) was 25%.

With cyclo(AFLPA) the step yield ([1]; late stage modification step, run 1) was 52% and 28%.

For HSCH2CH2-Gly-Arg-Phe-Gly-OH, the step yield ([1]; late stage modification step) was 68%.

In the case of GG[Sar]G, the cyclisation yield [1] is reported as 11%.

Work on “Cyclo-[N-(6-nitro-2-hydroxybenzyl)-Ala-Phe-Leu-Pro-Ala]” yielded a cyclisation yield [1] of 39%.

Work on G[Sar][Sar]G yielded a cyclisation yield [1] of 13%.

cyclo(NSLAIPFNSLAIPF) gave a cyclisation yield [1] of 21%, an isolated yield ([1]; whole synthesis, run 1) of 24.5% and an isolated yield ([1]; whole synthesis, run 2) of under 1%.

With cyclo-[DG-Act-RG] the isolated yield [2] was 11% and the isolated mass ([1]; whole synthesis, scale 0.5 mmol) was 27 mg.

Work on Gly-Gly-Gly-Gly yielded a cyclisation yield [1, 4] of under 1%.

Substance Cyclo-(SCH2CH2-Gly-Arg-Pro-Phe-Gly) has a cyclisation yield [1] of 31%.

cyclo-[D-G-Amb-R-G] gave an isolated yield ([1]; whole synthesis) of 7.6%.

Cyclo-[(Hnb)Tyr-Arg-(Hnb)Phe-Ala] gave a cyclisation yield [1] of 60%.

cyclo(YRF[dA]) gave a step yield ([1]; late stage modification step) of 42%.

For “Cyclo-[N-(5-nitro-2-hydroxybenzyl)-Ala-Phe-Leu-Pro-Ala]”, the cyclisation yield ([1]; run 1) was 50% isolated yield and the cyclisation yield ([1]; run 2) was 51%.

Cyclo-[(Hnb)Tyr-(Hnb)Arg-Phe-Gly] gave a cyclisation yield [1] of 61%.

“NH2CH2CH2SSCH2CH2-Gly-Arg-Pro-Phe-Gly-OH” showed an isolated yield ([1]; whole synthesis) of 47%.

[Hnb]Ala-Tyr-[Hnb]Arg-Phe showed an isolated yield [3] of 28%.

Reference: patent publication US7589170B1 (priority 1998, dated 2009)
